# Measured values reported in PubChem BioAssay AID662 (National Center for Advancing Translational Sciences (NCATS), 2007).
# The list shows a part of the results. These are further read-outs of the screen, such as a control signal, another cell line or another target. No call is given for them. The list favours compounds with an active or inconclusive main result. The note in brackets gives the kind of curve behind each potency; many fits are weak.
# Assay: Cell signaling CRE-BLA (Fsk stim)
# Settings: CHO CRE-bla reporter (cAMP response element driving beta-lactamase), forskolin EC10, beta-lactamase ratio; measured here: 460 nm blue channel
# In short: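 qHTS titration format; CRE-bla CHO reporter; stimulus EC10 NKH 477, a water-soluble forskolin. Read: CCF4 460/530 nm ratio. Potency expressed as AC50 for activators or inhibitors.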
row,SMILES,AC50
1,Cc1ccc(CCNC(=O)NC(C)(C)C)cc1,"0.00316 µM [falling, full curve, poor fit]"
2,CCc1cc2cc(C)ccc2nc1SCC(=O)N1CCN(C(=O)c2ccco2)CC1,"15.8 µM [rising, single point]"
3,Oc1ccc(N=Cc2ccc(O)c(O)c2)cc1,"15.8 µM [falling, partial curve]"
4,O=C1C=C(NCC2CCCO2)C2(CCCCC2)O1 (stereo not drawn),"0.0501 µM [falling, full curve, poor fit]"
5,CCOc1ncccc1C(=O)Nc1ccc(-c2cn3ccsc3n2)cc1,"5.01 µM [rising, partial curve]"
6,COC(=O)CS(=O)(=O)c1nnc([C@H](Cc2ccccc2)NC(=O)OC(C)(C)C)o1,"20 µM [falling, partial curve, poor fit]"
7,CC(CCc1ccccc1)C(=O)NO (stereo not drawn),"0.794 µM [falling, partial curve]"
8,CC(C)n1c(=N)c(C(=O)NCCc2ccccc2)cc2c(=O)n3ccccc3nc21,"12.6 µM [rising, partial curve]"
9,Cc1cc(Cl)c(S(=O)(=O)NCC2CCCO2)cc1OCC(N)=O (stereo not drawn),"2.51 µM [falling, single point]"
10,CCC(Sc1nc(=O)cc(N)n1-c1ccccc1)C(=O)Nc1cc(C)on1 (stereo not drawn),"1 µM [falling, partial curve, poor fit]"
11,CN1CCN(C2=Nc3ccccc3Oc3ccc(Cl)cc32)CC1,"12.6 µM [falling, single point]"
12,Cc1cccc2sc(NC(=O)CN(C)S(=O)(=O)c3ccc(Br)s3)nc12,"10 µM [falling, partial curve]"
13,c1ncc(-c2ccc3c(c2)OCO3)c(NCCc2cnc[nH]2)n1,"0.1 µM [falling, full curve, poor fit]"
14,CCc1nc(N2CCN(C(=O)c3ccco3)CC2)c2oc3ccccc3c2n1,"6.31 µM [rising, partial curve]"
15,CCN(CC)C(=O)Oc1ccc2c(=O)c(-c3ccc(OC)cc3)coc2c1,"12.6 µM [falling, single point]"
16,Cc1nc(NC2=NCN(CCc3ccccc3)CN2)nc2c(C)cccc12,"25.1 µM [rising, single point]"
17,COc1ncc2nc(-c3cn(C)c4ccccc34)c(=O)n(Cc3ccc(F)cc3)c2n1,"5.01 µM [rising, partial curve]"
18,CCOC(=O)c1c(-c2ccc(C)o2)csc1NC(=O)CSc1nnc(C)s1,"10 µM [rising, single point]"
19,CN(Cc1cnc2nc(N)nc(N)c2n1)c1ccc(C(=O)N[C@H](CCC(=O)O)C(=O)O)cc1,"31.6 µM [rising, single point]"
20,C=CCNC(=O)c1ccc(C(=O)c2ccccc2)cc1,"5.01 µM [falling, single point]"
21,Cc1c(C(=O)NCCN2CCOCC2)oc2ccccc12,"0.00794 µM [falling, full curve]"
22,CCc1c2c(nc3ccc(OC)cc13)OC(CC)C2 (stereo not drawn),"20 µM [rising, single point]"

# 2 successive entries from above:
row,SMILES,AC50
5,CCOc1ncccc1C(=O)Nc1ccc(-c2cn3ccsc3n2)cc1,"5.01 µM [rising, partial curve]"
6,COC(=O)CS(=O)(=O)c1nnc([C@H](Cc2ccccc2)NC(=O)OC(C)(C)C)o1,"20 µM [falling, partial curve, poor fit]"

# Next part.

row,SMILES,AC50
1,Nc1c(C(=O)OCC2CCCO2)c2nc3ccccc3nc2n1-c1ccc2c(c1)OCCO2 (stereo not drawn),"0.1 µM [rising, full curve]"
2,O=C(NCc1ccc(Cl)cc1)C1C2C=CC3(CN(Cc4cccnc4)C(=O)C13)O2 (stereo not drawn),"0.398 µM [rising, full curve]"
3,Fc1ccc(-c2cc3nc4c(c(N5CCOCC5)n3n2)CCCC4)cc1,"5.01 µM [rising, single point]"
4,Cc1nc2ccccc2n1CC(=O)NCc1ccccc1,"3.98 µM [falling, full curve]"
5,O=C(CCN1C(=O)C2C3C=CC(C3)C2C1=O)N1CC(=O)N(CCc2ccccc2)C(=O)C1 (stereo not drawn),"0.251 µM [falling, full curve, poor fit]"
6,CC1=CC(C)(C)N(C(=O)CSc2nnc(-c3ccccc3)o2)c2ccc(C)cc21,"0.316 µM [rising, full curve]"
7,COCCNC(=O)c1sc2nc(-c3ccccc3)cn2c1C,"20 µM [rising, single point]"
8,O=c1oc2ccccc2c(O)c1CN1CCCCC1,"3.98 µM [rising, single point]"
9,O=S(=O)(c1ccc2c(c1)OCCO2)N(Cc1ccc(F)cc1)Cc1nnc(-c2cccs2)o1,"2.51 µM [falling, partial curve]"
10,O=C(Nc1cccc(F)c1)C1CCN(c2nnnn2-c2ccccc2)CC1,"5.01 µM [falling, single point]"
11,CCC1Sc2ccccc2N(CC(=O)NCCC(C)C)C1=O (stereo not drawn),"3.16 µM [falling, single point]"
12,CCOC(=O)c1[nH]nc2c1C(=O)N(CC)C2=O,"10 µM [falling, partial curve, poor fit]"
13,CCOC(=O)c1sc(NC(=O)c2cccs2)cc1C,"12.6 µM [rising, single point]"
14,COc1cc(/C=N/n2c(SC)nnc(C(C)(C)C)c2=O)ccc1O,"12.6 µM [rising, partial curve]"
15,CCOC(=O)Cc1c(C)c2ccc(N(CC)CC)cc2oc1=O,"10 µM [rising, partial curve]"
16,COc1ccc(S(=O)(=O)Cc2ccc(C(=O)N3CCN(c4cccc(C)c4)C(C)C3)o2)cc1 (stereo not drawn),"25.1 µM [falling, single point]"
17,CCCCn1c(=O)n(Cc2cccc(F)c2)c(=O)c2c1ncn2Cc1ccco1,"7.94 µM [rising, partial curve, poor fit]"
18,COc1ccccc1-n1cnc2cc(NS(=O)(=O)c3ccccc3)ccc21,"12.6 µM [rising, single point]"
19,CCCS(=O)(=O)c1nc(S(=O)(=O)c2ccc(C)cc2)c(N2CCCC2)s1,"0.0501 µM [rising, single point]"
20,CS(=O)(=O)c1ncc(Cl)c(C(=O)Nc2ccc(N3CCOCC3)cc2)n1,"2.51 µM [falling, full curve]"
21,COc1ccc(NS(=O)(=O)c2cc(OC)ccc2NC(=O)c2cc(C)oc2C)cc1,"25.1 µM [rising, single point]"
